Source: the supplement of paper PMC2577665
± gives the standard deviation of the averaged measurements. Single values of this set are uncertain.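 In each well, ERalpha-negative HeLa cells were transfected with ERalpha, a reporter bearing two estrogen response elements, and one overexpressed, poorly characterized human cDNA. Genes reducing signal to the BRCA1 positive control level (roughly 0.6 of empty vector) or below were scored as repressor hits.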

The substances below were run on ERE-luciferase reporter with exogenous ERalpha in HeLa cells (assay: relative ERE luciferase activity (Firefly/Renilla) upon cDNA overexpression, relative to empty vector (fold of empty vector); higher = stronger ERalpha transactivation (less repression)). Details: 17beta-estradiol: 10 nM; 12 h.

Substance | relative ERE luciferase activity
MNSSTSTMSEEPDALSVVNQLRDLAADPLNRRAIVQDQGCLPGLILFMDHPNPPVVHSALLALRYLAECRANREKMKGELGMMLSLQNVIQKTTTPGETKLLASEIYDILQSSNMADGDSFNEMNSRRRKAQFFLGTTNKRAKTVVLHIDGLDDTSRRNLCEEALLKIKGVISFTFQMAVQRCVVRIRSDLKAEALASAIASTKVMKAQQVVKSESGEEMLVPFQDTPVEVEQNTELPDYLPEDESPTKEQDKAVSRVGSHPEGGASWLSTAANFLSRSFYW [ARMC1] | 1.12
MSLSDWHLAVKLADQPLTPKSILRLPETELGEYSLGGYSISFLKQLIAGKLQESVPDPELIDLIYCGRKLKDDQTLDFYGIQPGSTVHVLRKSWPEPDQKPEPVDKVAAMREFRVLHTALHSSSSYREAVFKMLSNKESLDQIIVATPGLSSDPIALGVLQDKDLFSVFADPNMLDTLVPAHPALVNAIVLVLHSVAGSAPMPGTDSSSRSMPSSSYRDMPGGFLFEGLSDDEDDFHPNTRSTPSSSTPSSRPASLGYSGAAGPRPITQSELATALALASTPESSSHTPTPGTQGHSSGTSPMSSGVQSGTPITNDLFSQALQHALQASGQPSLQSQWQPQLQQLRDMGIQDDELSLRALQATGGDIQAALELIFAGGAP [UBL7] | 1.1 ± 0.061
MSNYVNDMWPGSPQEKDSPSTSRSGGSSRLSSRSRSRSFSRSSRSHSRVSSRFSSRSRRSKSRSRSRRRHQRKYRRYSRSYSRSRSRSRSRRYRERRYGFTRRYYRSPSRYRSRSRSRSRSRGRSYCGRAYAIARGQRYYGFGRTVYPEEHSRWRDRSRTRSRSRTPFRLSEKDRMELLEIAKTNAAKALGTTNIDLPASLRTVPSAKETSRGIGVSSNGAKPELSEKVTEDGTRNPNEKPTQQRSIAFSSNNSVAKPIQKSAKAATEEASSRSPKIDQKKSPYGLWIPI [C1orf63] | 1.1
MTTAARPTFEPARGGRGKGEGDLSQLSKQYSSRDLPSHTKIKYRQTTQDAPEEVRNRDFRRELEERERAAAREKNRDRPTREHTTSSSVSKKPRLDQIPAANLDADDPLTDEEDEDFEEESDDDDTAALLAELEKIKKERAEEQARKEQEQKAEEERIRMENILSGNPLLNLTGPSQPQANFKVKRRWDDDVVFKNCAKGVDDQKKDKRFVNDTLRSEFHKKFMEKYIK [CWC15] | 1.21
MLFIFPLSLPWRPSCWKESCSTGQRQAGRSREDSVTPPPSSPWPTPPAGAMSTKQEARRDEGEARTRGQEAQLRDRAHLSQQRRLKQATQFLHKDSADLLPLDSLKRLGTSKDLQPRSVIQRRLVEGNPNWLQGEPPRMQDLIHGQESRRKTSRTEIPALLVNCKCQDQLLRVAVDTGTQYNRISAGCLSRLGLEKRVLKASAGDLAPGPPTQVEQLELQLGQETVVCSAQVVDAESPEFCLGLQTLLSLKCCIDLEHGVLRLKAPFSELPFLPLYQEPGQ [NRIP2] | 1.05
MASPAPPEHAEEGCPAPAAEEQAPPSPPPPQASPAERQQQEEEAQEAGAAEGAGLQVEEAAGRAAAAVTWLLGEPVLWLGCRADELLSWKRPLRSLLGFVAANLLFWFLALTPWRVYHLISVMILGRVIMQIIKDMVLSRTRGAQLWRSLSESWEVINSKPDERPRLSHCIAESWMNFSIFLQEMSLFKQQSPGKFCLLVCSVCTFFTILGSYIPGVILSYLLLLCAFLCPLFKCNDIGQKIYSKIKSVLLKLDFGIGEYINQKKRERSEADKEKSHKDDSELDFSALCPKISLTVAAKELSVSDTDVSEVSWTDNGTFNLSEGYTPQTDTSDDLDRPSEEVFSRDLSDFPSLENGMGTNDEDELSLGLPTELKRKKEQLDSGHRPSKETQSAAGLTLPLNSDQTFHLMSNLAGDVITAAVTAAIKDQLEGVQQALSQAAPIPEEDTDTEEGDDFELLDQSELDQIESELGLTQDQEAEAQQNKKSSGFLSNLLGGH [FAM134B] | 1.23
MAATSGTDEPVSGELVSVAHALSLPAESYGNDPDIEMAWAMRAMQHAEVYYKLISSVDPQFLKLTKVDDQIYSEFRKNFETLRIDVLDPEELKSESAKEKWRPFCLKFNGIVEDFNYGTLLRLDCSQGYTEENTIFAPRIQFFAIEIARNREGYNKAVYISVQDKEGEKGVNNGGEKRADSGEEENTKNGGEKGADSGEEKEEGINREDKTDKGGEKGKEADKEINKSGEKAM [CXorf26] | 1.02
MAGAAEDARALFRAGVCAALEAWPALQIAVENGFGGVHSQEKAKWLGGAVEDYFMRNADLELDEVEDFLGELLTNEFDTVVEDGSLPQVSQQLQTMFHHFQRGDGAALREMASCITQRKCKVTATALKTARETDEDEDDVDSVEEMEVTATNDGAATDGVCPQPEPSDPDAQTIKEEDIVEDGWTIVRRKK [TSR2] | 2.27
MYLQVETRTSSRLHLKRAPGIRSWSLLVGILSIGLAAAYYSGDSLGWKLFYVTGCLFVAVQNLEDWEEAIFDKSTGKVVLKTFSLYKKLLTLFRAGHDQVVVLLHDVRDVSVEEEKVRYFGKGYMVVLRLATGFSHPLTQSAVMGHRSDVEAIAKLITSFLELHCLESPTELSQSSDSEAGDPASQS [C17orf62] | 1.08
MTKIKADPDGPEAQAEACSGERTYQELLVNQNPIAQPLASRRLTRKLYKCIKKAVKQKQIRRGVKEVQKFVNKGEKGIMVLAGDTLPIEVYCHLPVMCEDRNLPYVYIPSKTDLGAAAGSKRPTCVIMVKPHEEYQEAYDECLEEVQSLPLPL [NOLA2] | 1.18
TNRC6C | 1.25
MDRGSLLPFQLWCPRPFGTYSQNQPRPPSAALKPSACPEPGGGAEPDHGPAHSENTPPALATEVPASQPAPLLSAAAAGDEGRVLLDTWYVIKPGNTKEKVAFFVAHQCGGGSRASSMKVKGHWGSDSSKAKRRRRCLDPTKAPPDPGGREGPPAAEEGPASAGEDVDLLSVAEMVALVEQRAALALQSYPRPTTPAPVVFVSAEQGGPAKGVGSERRSGGGDCSRVAEAVAHFEAQRDSPPTKGLRKEERPGPGPGEVRIAFRISNGREPRAPDSGLPSGGGGRPGCAYPGSPGPGARAKDKITCDLYQLISPSRDALPSNVEFLLARADEASEGDSPAPARPEDTPPAPPPPPARDCGASGFHVDVVVTGVVDECIFFGKDGTKNVKEETVCLTVSPEEPPPPGQLFFLQNRGPDGPPEPPPADSPATAPGPDDAEGTADTSLCRLYRHVSHDFLEIRFKIQRLLEPRQYMLLLPEHVLVKIFSFLPTRALAALKCTCHHFKGIIEAFGVRATDSRWSRDPLYRDDPCKQCRKRYEKGDVSLCRWHPKPYHHDLPYGRSYWMCCRRADRETPGCRLGLHDNNWVLPCNGPGGGRAGREEGR [FBXO46] | 1.1
MDQCVTVERELEKVLHKFSGYGQLCERGLEELIDYTGGLKHEILQSHGQDAELSGTLSLVLTQCCKRIKDTVQKLASDHKDIHSSVSRVGKAIDKNFDSDISSVGIDGCWQADSQRLLNEVMVEHFFRQGMLDVAEELCQESGLSVDPSQKEPFVELNRILEALKVRVLRPALEWAVSNREMLIAQNSSLEFKLHRLYFISLLMGGTTNQREALQYAKNFQPFALNHQKDIQVLMGSLVYLRQGIENSPYVHLLDANQWADICDIFTRDACALLGLSVESPLSVSFSAGCVALPALINIKAVIEQRQCTGVWNQKDELPIEVDLGKKCWYHSIFACPILRQQTTDNNPPMKLVCGHIISRDALNKMFNGSKLKCPYCPMEQSPGDAKQIFF [RMND5A] | 0.843
MAESLRSPRRSLYKLVGSPPWKEAFRQRCLERMRNSRDRLLNRYRQAGSSGPGNSQNSFLVQEVMEEEWNALQSVENCPEDLAQLEELIDMAVLEEIQQELINQEQSIISEYEKSLQFDEKCLSIMLAEWEANPLICPVCTKYNLRITSGVVVCQCGLSIPSHSSELTEQKLRACLEGSINEHSAHCPHTPEFSVTGGTEEKSSLLMSCLACDTWAVIL [RPAIN] | 1.18 ± 0.26
MILNSLSLCYHNKLILAPMVRVGTLPMRLLALDYGADIVYCEELIDLKMIQCKRVVNEVLSTVDFVAPDDRVVFRTCEREQNRVVFQMGTSDAERALAVARLVENDVAGIDVNMGCPKQYSTKGGMGAALLSDPDKIEKILSTLVKGTRRPVTCKIRILPSLEDTLSLVKRIERTGIAAIAVHGRKREERPQHPVSCEVIKAIADTLSIPVIANGGSHDHIQQYSDIEDFRQATAASSVMVARAAMWNPSIFLKEGLRPLEEVMQKYIRYAVQYDNHYTNTKYCLCQMLREQLESPQGRLLHAAQSSREICEAFGLGAFYEETTQELDAQQARLSAKTSEQTGEPAEDTSGVIKMAVKFDRRAYPAQITPKMCLLEWCRREKLAQPVYETVQRPLDRLFSSIVTVAEQKYQSTLWDKSKKLAEQAAAIVCLRSQGLPEGRLGEESPSLHKRKREAPDQDPGGPRAQELAQPGDLCKKPFVALGSGEESPLEGW [DUS2L] | 1.01
MARRRRRACIALFLVLLFAFGTLMGLRTLKAPDGLPALGPGLELAPFERRPEGAPAPAARAPAAPAAPPPPPPPPRTADPGGSPGPAPAEAEPAPVQSLRVYSDLHAFYYSWYGSPRREGHYIHWDHVMVPHWDPKISASYPRGRHSPPDDLGSSFYPELGPYSSRDPEVLREHMTQLKEAAIGVLVLSWYPPGMADDNGEPSDDLVPAILDTAHQYSIQVAFHIQPYKGRDDITVHDNIKYIIDTYGSHGAFYRYKNSMGKSLPLFYIYDSYLTSPEAWAHLLTPNGPHSIRNTPYDGVFIALLVEEGHTHDILAAGFDGMYTYFASNGFSFGSSHQNWKAVKNFCDANNLMFIPSVGPGYIDTSIRPWNNHNTRNRVNGKYYETALQAALTVRPEIVSITSFNEWHEGTQIEKAIPKKTPTRLYLDYLPHQPSLYLELTRRWAEHFIKEKEQWLM [MANEAL] | 1.22 ± 0.051
MDAGKAGQTLKTHCSAQRPDVCRWLSPFILSCCVYFCLWIPEDQLSWFAALVKCLPVLCLAGFLWVMSPSGGYTQLLQGALVCSAVGDACLIWPAAFVPGMAAFATAHLLYVWAFGFSPLQPGLLLLIILAPGPYLSLVLQHLEPDMVLPVAAYGLILMAMLWRGLAQGGSAGWGALLFTLSDGVLAWDTFAQPLPHAHLVIMTTYYAAQLLITLSALRSPVPKTD [TMEM86B] | 1.12
MCVRRSLVGLTFCTCYLASYLTNKYVLSVLKFTYPTLFQGWQTLIGGLLLHVSWKLGWVEINSSSRSHVLVWLPASVLFVGIIYAGSRALSRLAIPVFLTLHNVAEVIICGYQKCFQKEKTSPAKICSALLLLAAAGCLPFNDSQFNPDGYFWAIIHLLCVGAYKILQKSQKPSALSDIDQQYLNYIFSVVLLAFASHPTGDLFSVLDFPFLYFYRFHGSCCASGFLGFFLMFSTVKLKNLLAPGQCAAWIFFAKIITAGLSILLFDAILTSATTGCLLLGALGEALLVFSERKSS [C18orf45] | 1.11
MSLNPPIFLKRSEENSSKFVETKQSQTTSIASEDPLQNLCLASQEVLQKAQQSGRSKCLKCGGSRMFYCYTCYVPVENVPIEQIPLVKLPLKIDIIKHPNETDGKSTAIHAKLLAPEFVNIYTYPCIPEYEEKDHEVALIFPGPQSISIKDISFHLQKRIQNNVRGKNDDPDKPSFKRKRTEEQEFCDLNDSKCKGTTLKKIIFIDSTWNQTNKIFTDERLQGLLQVELKTRKTCFWRHQKGKPDTFLSTIEAIYYFLVDYHTDILKEKYRGQYDNLLFFYSFMYQLIKNAKCSGDKETGKLTH [DTWD1] | 1.21
MALKVLLEQEKTFFTLLVLLGYLSCKVTCESGDCRQQEFRDRSGNCVPCNQCGPGMELSKECGFGYGEDAQCVTCRLHRFKEDWGFQKCKPCLDCAVVNRFQKANCSATSDAICGDCLPGFYRKTKLVGFQDMECVPCGDPPPPYEPHCASKVNLVKIASTASSPRDTALAAVICSALATVLLALLILCVIYCKRQFMEKKPSWSLRSQDIQYNGSELSCFDRPQLHEYAHRACCQCRRDSVQTCGPVRLLPSMCCEEACSPNPATLGCGVHSAASLQARNAGPAGEMVPTFFGSLTQSICGEFSDAWPLMQNPMGGDNISFCDSYPELTGEDIHSLNPELESSTSLDSNSSQDLVGGAVPVQSHSENFTAATDLSRYNNTLVESASTQDALTMRSQLDQESGAVIHPATQTSLQVRQRLGSL [TNFRSF19] | 2.23
